Laboratory results taken from patent US20190264213A1 (YEDA RESEARCH AND DEVELOPMENT, published 2019).
At least one result comes from cells or an extract, where the contact may be indirect. No signal at the amounts used counts as a negative. Where a protein sequence is shown, tags need not be part of it.

Target: T1, AimR (phi3T) (Bacteriophage phi3T) (UniProt P0DOE3)
T1 sequence: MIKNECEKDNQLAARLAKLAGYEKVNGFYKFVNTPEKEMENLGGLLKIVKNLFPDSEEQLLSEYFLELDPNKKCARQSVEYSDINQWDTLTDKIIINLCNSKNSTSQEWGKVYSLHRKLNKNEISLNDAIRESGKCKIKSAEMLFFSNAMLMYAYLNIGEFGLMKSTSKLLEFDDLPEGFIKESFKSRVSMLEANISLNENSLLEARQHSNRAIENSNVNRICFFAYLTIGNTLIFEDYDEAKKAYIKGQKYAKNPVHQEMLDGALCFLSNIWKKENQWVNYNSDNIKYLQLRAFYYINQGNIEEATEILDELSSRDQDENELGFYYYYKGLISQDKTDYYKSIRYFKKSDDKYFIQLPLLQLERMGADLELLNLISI
Assay: binding assay
Details: protein in cells, protein details: C-terminal 6xHis

“TTAAATAATTGAATAGGTAATACATAATACTATCATAGACGTTTGATCCATTGGATCAGGCGTCTTTTCTAATTTTAAGGGAAAGTTCCAGAAATTCAAAAATCAAAAAA (double strand)”: binds (ChIP-seq in B. subtilis 168, 15 min after phi3T infection, no peptide, single site in phage genome); no binding (ChIP-seq with 1 uM SAIRGA arbitrium peptide in medium, binding lost).
